Experimental data as given in PMC10866687.

Target: α-tubulin, endogenous (human (endogenous in MDA-MB-231))
Assay: proximity ligation; Duolink PLA on methanol-fixed MDA-MB-231 cells stably expressing GFP fusions, anti-GFP and anti-α-tubulin; MAP1B siRNA in Fig. 6 B (proximity not affected)

B1: Bet1-GFP, in MDA-MB-231 cells (MDA/Bet1-GFP) (protein, UniProt O15155 1-118)
chain: MRRAGLGEGVPPGNYGNYGYANSGYSACEEENERLTESLRSKVTAIKSLSIEIGHEVKTQNKLLAEMDSQFDSTTGFLGKTMGKLKILSRGSQTKLLCYMMLFSLFVFFIIYWIIKLR
Question: B1 was tested. Which binding did it give?
Answer: The binding was “no binding”.

Results are given in words; binding and its absence hold for the method and conditions named. In cells and extracts the contact can be indirect. Sequences can lack the tags named with a protein.
